Laboratory results taken from article PMC9605029.
Results are given in words; binding and its absence hold for the method and conditions named. Binding seen in cells or lysates may run through a third protein. Some entries that bind do so weakly or less than the wild type.

How the values were obtained:
[1] = target: T1, methyltransferase-like 14 (METTL14) protein (human (endogenous in BCa cells)) (UniProt Q9HCE5); assay: co-IP; total proteins extracted from BCa cells, incubated with anti-METTL14, anti-USP38 or anti-IgG conjugated beforehand with Protein A/G Agarose beads; precipitates assessed by western blot
T1 sequence: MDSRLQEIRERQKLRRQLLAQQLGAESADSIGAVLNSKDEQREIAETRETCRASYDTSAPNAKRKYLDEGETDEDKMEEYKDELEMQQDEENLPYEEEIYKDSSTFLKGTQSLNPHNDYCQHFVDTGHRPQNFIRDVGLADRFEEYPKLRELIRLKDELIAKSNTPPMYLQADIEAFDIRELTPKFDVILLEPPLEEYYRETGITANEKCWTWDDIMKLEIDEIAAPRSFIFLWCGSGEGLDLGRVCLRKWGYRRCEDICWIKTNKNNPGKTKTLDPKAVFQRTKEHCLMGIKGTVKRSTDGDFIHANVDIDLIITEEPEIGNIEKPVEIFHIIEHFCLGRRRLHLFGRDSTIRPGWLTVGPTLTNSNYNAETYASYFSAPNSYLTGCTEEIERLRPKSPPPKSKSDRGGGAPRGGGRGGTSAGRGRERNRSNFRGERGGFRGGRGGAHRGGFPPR

[2] = target: T2, ubiquitin specific peptidase 38 (USP38) protein (human (endogenous in BCa cells)) (UniProt Q8NB14); assay: as above
T2 sequence: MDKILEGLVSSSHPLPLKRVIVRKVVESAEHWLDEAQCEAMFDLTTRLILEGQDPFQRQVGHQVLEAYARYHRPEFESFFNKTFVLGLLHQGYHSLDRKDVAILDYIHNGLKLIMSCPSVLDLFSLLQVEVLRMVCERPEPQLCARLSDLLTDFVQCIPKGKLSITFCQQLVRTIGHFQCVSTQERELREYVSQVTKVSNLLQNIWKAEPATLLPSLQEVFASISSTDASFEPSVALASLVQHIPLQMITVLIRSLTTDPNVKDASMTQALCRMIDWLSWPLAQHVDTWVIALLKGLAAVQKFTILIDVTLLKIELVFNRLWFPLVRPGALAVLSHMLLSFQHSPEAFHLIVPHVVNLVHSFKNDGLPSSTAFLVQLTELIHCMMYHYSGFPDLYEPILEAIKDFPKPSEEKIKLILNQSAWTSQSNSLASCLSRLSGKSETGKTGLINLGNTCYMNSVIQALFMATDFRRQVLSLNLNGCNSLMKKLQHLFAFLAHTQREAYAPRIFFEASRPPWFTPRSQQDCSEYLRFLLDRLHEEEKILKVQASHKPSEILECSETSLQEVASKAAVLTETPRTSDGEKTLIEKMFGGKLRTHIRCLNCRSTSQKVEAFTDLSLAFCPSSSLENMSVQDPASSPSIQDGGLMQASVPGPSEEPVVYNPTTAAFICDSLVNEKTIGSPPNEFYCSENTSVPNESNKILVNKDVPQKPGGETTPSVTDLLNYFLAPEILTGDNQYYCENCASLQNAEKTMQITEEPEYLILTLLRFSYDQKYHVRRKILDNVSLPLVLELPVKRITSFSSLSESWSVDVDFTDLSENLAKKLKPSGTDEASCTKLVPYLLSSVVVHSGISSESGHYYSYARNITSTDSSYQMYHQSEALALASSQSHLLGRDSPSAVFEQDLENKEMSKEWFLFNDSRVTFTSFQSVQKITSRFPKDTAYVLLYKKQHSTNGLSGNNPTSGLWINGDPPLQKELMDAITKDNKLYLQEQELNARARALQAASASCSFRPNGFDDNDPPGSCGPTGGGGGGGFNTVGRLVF

B1: ubiquitin specific peptidase 38 (USP38) protein (enzyme, UniProt Q8NB14 1-1042)
chain: T2 sequence
For B1, the binding [1] was “binds”.

B2: methyltransferase-like 14 (METTL14) protein (protein, UniProt Q9HCE5 1-456)
chain: T1 sequence
For B2, the binding [2] was “binds”.
